Assay results reported in patent US20150023943.
Residue numbers refer to the chain shown, from its start. For some of these results: Weaker means in comparison with the reference protein, sequence or condition of that experiment. Protein sequences can lack the tags named with them. For some of these results: The exact form of at least one protein or probe is not confirmed.

Assays:
[1] = biological target: T1, φW39 ΔN66 Ref (Bacteriophage phi W39) (UniProt P35926); assay: FP; settings: purified recombinant protein, protein details: expressed from pET21A with NdeI start Met
T1 sequence: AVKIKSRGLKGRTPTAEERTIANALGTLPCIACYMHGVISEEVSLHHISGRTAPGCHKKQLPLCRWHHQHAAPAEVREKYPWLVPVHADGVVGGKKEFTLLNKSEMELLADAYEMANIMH

[2] = biological target: T2, φW39 Ref (wild type) (Bacteriophage phi W39) (UniProt P35926); assay: enzyme reaction in vitro; settings: purified recombinant protein, folded or branched DNA
T2 sequence: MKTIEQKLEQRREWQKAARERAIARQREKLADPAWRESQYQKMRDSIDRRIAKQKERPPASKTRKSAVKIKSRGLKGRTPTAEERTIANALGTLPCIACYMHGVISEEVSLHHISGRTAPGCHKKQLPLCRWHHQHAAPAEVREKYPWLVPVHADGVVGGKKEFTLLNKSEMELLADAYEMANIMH

[3] = biological target: T3, φW39 ΔN59 Ref (Bacteriophage phi W39) (UniProt P35926); assay: FP; settings: reduced affinity; purified recombinant protein; protein details: expressed from pET21A with NdeI start Met; label: 5'-6FAM on AJM25
T3 sequence: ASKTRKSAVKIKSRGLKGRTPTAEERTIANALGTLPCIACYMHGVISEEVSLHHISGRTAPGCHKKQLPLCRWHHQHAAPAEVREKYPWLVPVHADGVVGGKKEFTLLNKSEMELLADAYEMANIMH

[4] = biological target: T3, φW39 ΔN59 Ref (Bacteriophage phi W39); assay: enzyme reaction in vitro; settings: kinetics identical to WT; RecA E38K, ATP, Mg; purified recombinant protein; protein details: expressed from pET21A with NdeI start Met; folded or branched DNA
[5] = biological target: T4, φW39 ΔN47 Ref (Bacteriophage phi W39) (UniProt P35926); assay: enzyme reaction in vitro; settings: RecA E38K, ATP, Mg; about two-fold more at 30 min per p142; purified recombinant protein; protein details: expressed from pET21A with NdeI start Met; folded or branched DNA
T4 sequence: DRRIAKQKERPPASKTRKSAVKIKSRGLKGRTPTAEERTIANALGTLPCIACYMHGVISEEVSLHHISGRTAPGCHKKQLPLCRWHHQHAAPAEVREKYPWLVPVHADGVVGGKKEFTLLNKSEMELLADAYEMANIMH

[6] = biological target: T5, φW39 ΔN21 Ref (Bacteriophage phi W39) (UniProt P35926); assay: enzyme reaction in vitro; settings: RecA E38K, ATP, Mg; about two-fold more at 30 min per p142; purified recombinant protein; protein details: expressed from pET21A with NdeI start Met; folded or branched DNA
T5 sequence: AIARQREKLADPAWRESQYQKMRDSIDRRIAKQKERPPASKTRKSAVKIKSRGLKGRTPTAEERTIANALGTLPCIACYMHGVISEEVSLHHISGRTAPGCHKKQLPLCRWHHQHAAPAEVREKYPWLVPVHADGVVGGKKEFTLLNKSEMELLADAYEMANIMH

[7] = biological target: T6, φW39 ΔN74 Ref (Bacteriophage phi W39) (UniProt P35926); assay: enzyme reaction in vitro; settings: 3 h; reduced but significant nicking; near WT product at 50-fold higher protein (p143); purified recombinant protein; protein details: expressed from pET21A with NdeI start Met; folded or branched DNA
T6 sequence: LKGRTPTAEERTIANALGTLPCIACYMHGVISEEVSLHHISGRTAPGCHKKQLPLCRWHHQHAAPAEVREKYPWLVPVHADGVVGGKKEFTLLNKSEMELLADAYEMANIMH

[8] = biological target: T1, φW39 ΔN66 Ref (Bacteriophage phi W39); assay: enzyme reaction in vitro; settings: RecA E38K, ATP, Mg; purified recombinant protein; protein details: expressed from pET21A with NdeI start Met; folded or branched DNA
[9] = biological target: T7, P1 Ref (wild type) (Bacteriophage P1) (UniProt P35926); assay: enzyme reaction in vitro; settings: 3 h; 100 nM Ref, 1.33 uM RecA E38K, ATP, 15 mM Mg, 37 C; unaffected by 10 mM DTT; purified recombinant protein; folded or branched DNA
T7 sequence: T2 sequence with L8I, R11C, E13K, A34V, S46T, I47L, T86R, T93A, E107N, S115A

[10] = biological target: T8, TMO hybrid Ref (Artificial Sequence) (UniProt P35926); assay: enzyme reaction in vitro; settings: RecA E38K, ATP, Mg; about two-fold more at 30 min per p142; purified recombinant protein; folded or branched DNA
T8 sequence: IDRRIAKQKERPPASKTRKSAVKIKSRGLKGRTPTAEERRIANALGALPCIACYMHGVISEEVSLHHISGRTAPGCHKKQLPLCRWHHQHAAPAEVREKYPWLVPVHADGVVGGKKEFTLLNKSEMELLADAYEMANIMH

[11] = two DSBs with two separate oligos (500 or 1000 bases apart), pairing of oligos not stated

“CAGAAGTAAGTTGGCCGCAGTGTTATCACTCATGGTTATGGCAGCACTGCATAATTCTCTTACTGTCATGC [AJM25 71mer ssDNA]”: binds more weakly ([1]; further reduced versus ΔN59, saturation not attainable, label: …, single-stranded DNA).

For “ATGCTACAGGCGTTGTAGTTTGTACTGGTGACGAAACTCAGTGTTACGGTACATGGGTTCCTATTGGGCTTGCTATCCCTGAAAATGAGGGTGGTGGCTCTGAGGGTGGCGGTTCTGAGGGTGGCGGTTCTGAGGGTGGC [TMO7 targeting oligo, D-loop in M13mp18 dsDNA]”, the “activity on this sequence” value [2, 11] was “active”.

“CAGAAGTAAGTTGGCCGCAGTGTTATCACTCATGGTTATGGCAGCACTGCATAATTCTCTTACTGTCATGC (double strand) [AJM25/AJG52 71 bp dsDNA]”: binds more weakly [3]; binds more weakly ([1]; further reduced affinity, label: 5'-6FAM on AJM25).

In the case of “TGGTGCCTTCGTAGTGGCATTACGTATTTTACCCGTTTAATGGAAACTTCCTCATGAAAAAGTCTTTAGTCCTCAAAGCCTCTGTAGCCGTTGCTACCCTCGTTCCGATGCTGTCTTTCGCTGCTGAGGGTGACGATCCC [TMO6 targeting oligo, D-loop in M13mp18 dsDNA]”, the “activity on this sequence” value [2, 11] is reported as “active”.

For “TTTTGGTTTTTATCGTCGTCTGGTAAACGAGGGTTATGATAGTGTTGCTCTTACTATGCCTCGTAATTCCTTTTGGCGTTATGTATCTGCATTAGTTGAATGTGGTATTCCTAAATCTCAACTGATGAATCTTTCTACCTGTAATAATGT [rlb1 150mer D-loop in M13mp18 supercoiled dsDNA]”, the activity on this sequence [4] was 63 % linearized, the activity on this sequence ([2]; 3 h, 100 nM Ref, 1.33 uM RecA E38K, ATP, 15 mM Mg, 37 C) was 63 % linearized and the “activity on this sequence” value [5] was “active”. For the same sequence, the “activity on this sequence” value [6] was “active”, the activity on this sequence [7] was 4 % linearized and the activity on this sequence (fold reduction versus WT) [8] was 2. For the same sequence, the activity on this sequence [9] was 63 % linearized and the “activity on this sequence” value [10] was “active”.
